Test results taken from patent publication US7777070B2, “Acyloxyalkyl carbamate prodrugs of tranexamic acid, methods of synthesis and use” (XenoPort, Inc., priority 2005, dated 2010).
At least one structure is not confirmed: it was looked up by name or label, or the drawing left a doubt. Some entries share one result that the patent states for a list of compounds.

How the values were obtained:
[1] = pH-dependent chemical stability of prodrugs in aqueous buffers; format: physicochemical; conditions: 37° C., 5 μM, pH 2.0 to pH 8.0, 0 and 24 hours
pancreatin = assay: Pancreatin stability; format: in vitro ADME, porcine; conditions: after 60 min incubation, 37° C., 1% (w/v) pancreatin, prodrug 5 μM
[2] = Stability in colonic wash; format: in vitro ADME; conditions: after 60 min incubation
[3] = Human liver S9 stability (enzymatic cleavage of prodrug); format: in vitro ADME; conditions: after 60 min incubation, 37° C., 0.5 mg/mL S9, 2.0 μM, NADPH
[4] = Pharmacokinetics of tranexamic acid after administration of tranexamic acid or prodrug to rats; format: in vivo, Sprague-Dawley rats; conditions: intracolonic administration, rat
Procedure: Tranexamic acid or a tranexamic acid prodrug of the present disclosure was administered as an intravenous bolus injection (i.v.), by oral gavage (p.o.), or by intracolonic (i.c.) administration via an indwelling catheter in the ascending colon to groups of four to six adult male Sprague-Dawley rats (weight approximately 250 g). Animals were fasted overnight before the study and for 4 hours post-dosing and were conscious at the time of the experiment. When administered intravenously, tranexamic acid was administered as a solution in water at a dose equivalent to 16 mg (0.1 mmol) of tranexamic acid per kg body weight. Prodrugs were orally or intracolonically administered as a suspension in 0.5% methyl cellulose in 0.1% Tween 80 at a dose equivalent to 16 mg (0.1 mmol) of tranexamic acid per kg body weight. […] Blood was quenched immediately using methanol and then was frozen at −80° C. until analyzed. […]
4. The supernatant was analyzed by LC/MS/MS. […]
The oral or intracolonic bioavailability (F) of tranexamic acid was determined by comparing the area under the tranexamic acid concentration vs. time curve (AUC) following oral or intracolonic administration of tranexamic acid or prodrug with the AUC of the tranexamic acid concentration vs. time curve following intravenous administration of tranexamic acid on a dose normalized basis. […]

Caco-2 cells = assay: Caco-2 cellular permeability; conditions: prodrug 200 μM, pH 6.5 apical / pH 7.4 basolateral, efflux pump inhibitors MK-571 and Verapamil

In the case of `CCC(OC(=O)NC[C@H]1CC[C@H](C(=O)O)CC1)OC(=O)c1ccccc1` (relative stereo) [Compound 32, trans-4-{[1-(Benzoyloxy)propoxycarbonyl]aminomethyl}-Cyclohexanecarboxylic Acid], the “stability from pH 2 to pH 8” value [1] was “good stability”, the “intact prodrug remaining in the presence of pancreatin” value (pancreatin) was > 40% and the “intact prodrug remaining in the presence of colonic wash” value [2] was > 40%. The “prodrug remaining in the presence of human liver S9” value [3] was < 15%.
For `CCCC(OC(C)=O)OC(=O)NC[C@H]1CC[C@H](C(=O)O)CC1` (relative stereo) [Compound 33, trans-4-{[1-(Acetoxy)butoxycarbonyl]aminomethyl}-Cyclohexanecarboxylic Acid], the “stability from pH 2 to pH 8” value [1] was “good stability”, the “intact prodrug remaining in the presence of pancreatin” value (pancreatin) was > 40% and the “intact prodrug remaining in the presence of colonic wash” value [2] was > 40%. For the same compound, the “prodrug remaining in the presence of human liver S9” value [3] was < 15%.
For `CCCC(OC(=O)CC)OC(=O)NC[C@H]1CC[C@H](C(=O)O)CC1` (relative stereo) [Compound 34, trans-4-{[1-(Propanoyloxy)butoxycarbonyl]aminomethyl}-Cyclohexanecarboxylic Acid], the “stability from pH 2 to pH 8” value [1] was “good stability”, the “intact prodrug remaining in the presence of pancreatin” value (pancreatin) was > 40% and the “intact prodrug remaining in the presence of colonic wash” value [2] was > 40%. The “prodrug remaining in the presence of human liver S9” value [3] was < 15%.
For `CC(C)CC(=O)OC(OC(=O)NC[C@H]1CC[C@H](C(=O)O)CC1)C(C)C` (relative stereo) [Compound 46, trans-4-{[1-(3-Methylbutanoyloxy)-2-methylpropoxycarbonyl]aminomethyl}-Cyclohexanecarboxylic Acid], the “stability from pH 2 to pH 8” value [1] was “good stability”, the “intact prodrug remaining in the presence of pancreatin” value (pancreatin) was > 40% and the “intact prodrug remaining in the presence of colonic wash” value [2] was > 40%. The “prodrug remaining in the presence of human liver S9” value [3] was < 15%.
For `CC(C)C(OC(=O)NC[C@H]1CC[C@H](C(=O)O)CC1)OC(=O)C1CCCCC1` (relative stereo) [Compound 48, trans-4-{[1-(Cyclohexylcarbonyloxy)-2-methylpropoxycarbonyl]aminomethyl}-Cyclohexanecarboxylic Acid], the “stability from pH 2 to pH 8” value [1] was “good stability”, the “intact prodrug remaining in the presence of pancreatin” value (pancreatin) was > 40% and the “intact prodrug remaining in the presence of colonic wash” value [2] was > 40%. The “prodrug remaining in the presence of human liver S9” value [3] was < 15%.
In the case of `CC(C)C(OC(=O)NC[C@H]1CC[C@H](C(=O)O)CC1)OC(=O)c1ccccc1` (relative stereo) [Compound 49, trans-4-{[1-(Benzoyloxy)-2-methylpropoxycarbonyl]aminomethyl}-Cyclohexanecarboxylic Acid], the “stability from pH 2 to pH 8” value [1] was “good stability”, the “intact prodrug remaining in the presence of pancreatin” value (pancreatin) was > 40% and the “intact prodrug remaining in the presence of colonic wash” value [2] was > 40%. For the same compound, the “prodrug remaining in the presence of human liver S9” value [3] was < 15%.
In the case of `CC(C)C(=O)OC(OC(=O)NC[C@H]1CC[C@H](C(=O)O)CC1)C1CCCCC1` (relative stereo) [Compound 51, trans-4-{[1-(2-Methylpropanoyloxy)-1-cyclohexylmethoxycarbonyl]aminomethyl}-Cyclohexanecarboxylic Acid], the “stability from pH 2 to pH 8” value [1] was “good stability”, the “intact prodrug remaining in the presence of pancreatin” value (pancreatin) was > 40% and the “intact prodrug remaining in the presence of colonic wash” value [2] was > 40%. For the same compound, the “prodrug remaining in the presence of human liver S9” value [3] was < 15%.
With `CC(C)CC(=O)OC(C)OC(=O)NC[C@H]1CC[C@H](C(=O)O)CC1` (single isomer, unassigned) [Compound 19, trans-4-{[1-(3-Methylbutanoyloxy)ethoxycarbonyl]aminomethyl}-Cyclohexanecarboxylic Acid] the “stability from pH 2 to pH 8” value [1] was “good stability”, the “intact prodrug remaining in the presence of pancreatin” value (pancreatin) was > 40% and the “intact prodrug remaining in the presence of colonic wash” value [2] was > 40%. For the same compound, the “prodrug remaining in the presence of human liver S9” value [3] was < 15%.
In the case of `CC(C)C(=O)OC(OC(=O)NC[C@H]1CC[C@H](C(=O)O)CC1)C(C)C` (single isomer, unassigned) [Compound 44, trans-4-{[1-(2-Methylpropanoyloxy)-2-methylpropoxycarbonyl]aminomethyl}-Cyclohexanecarboxylic Acid], the “stability from pH 2 to pH 8” value [1] was “good stability”, the “intact prodrug remaining in the presence of pancreatin” value (pancreatin) was > 40% and the “intact prodrug remaining in the presence of colonic wash” value [2] was > 40%. For the same compound, the “prodrug remaining in the presence of human liver S9” value [3] was < 15%.
With `CC(OC(=O)NC[C@H]1CC[C@H](C(=O)O)CC1)OC(=O)C(C)C` (stereo partly drawn) [Compound 13, trans-4-{[1-(2-Methylpropanoyloxy)ethoxycarbonyl]-aminomethyl}-Cyclohexanecarboxylic Acid] the “stability from pH 2 to pH 8” value [1] was “good stability”, the “intact prodrug remaining in the presence of pancreatin” value (pancreatin) was > 40% and the “intact prodrug remaining in the presence of colonic wash” value [2] was > 40%. For the same compound, the “prodrug remaining in the presence of human liver S9” value [3] was < 15%, the “bioavailability of tranexamic acid compared to tranexamic acid itself administered intracolonically” value [4] was “greater than 8 fold” and the “Papp (apical to basolateral)” value (Caco-2 cells) was 50.9 ×10⁻⁶ cm/s. The “Papp (basolateral to apical)” value (Caco-2 cells) was 10.7 ×10⁻⁶ cm/s.
In the case of `CC(C)C(=O)O[C@H](C)OC(=O)NC[C@H]1CC[C@H](C(=O)O)CC1` [Compound 15, (+)-trans-4-({[(S)-1-(2-Methylpropanoyloxy)ethoxy]carbonylamino}methyl)-Cyclohexanecarboxylic Acid], the “stability from pH 2 to pH 8” value [1] was “good stability”, the “intact prodrug remaining in the presence of pancreatin” value (pancreatin) was > 40% and the “intact prodrug remaining in the presence of colonic wash” value [2] was > 40%. For the same compound, the “prodrug remaining in the presence of human liver S9” value [3] was < 15%.
In the case of `CC(C)C(=O)O[C@H](C)OC(=O)NC[C@H]1CC[C@H](C(=O)[O-])CC1.[Na+]` [Compound 16, Sodium trans-4-({[(1S)-1-(2-methylpropanoyloxy)ethoxy]carbonylamino}methyl)-Cyclohexanecarboxylate], the “stability from pH 2 to pH 8” value [1] was “good stability”, the “intact prodrug remaining in the presence of pancreatin” value (pancreatin) was > 40% and the “intact prodrug remaining in the presence of colonic wash” value [2] was > 40%. The “prodrug remaining in the presence of human liver S9” value [3] was < 15%.
For `CC(C)C(=O)O[C@@H](C)OC(=O)NC[C@H]1CC[C@H](C(=O)O)CC1` [Compound 17, (−)-trans-4-({[(1R)-1-(2-Methylpropanoyloxy)ethoxy]carbonylamino}methyl)-Cyclohexanecarboxylic Acid], the “stability from pH 2 to pH 8” value [1] was “good stability”, the “intact prodrug remaining in the presence of pancreatin” value (pancreatin) was > 40% and the “intact prodrug remaining in the presence of colonic wash” value [2] was > 40%. The “prodrug remaining in the presence of human liver S9” value [3] was < 15%.
For `CC(C)C(=O)O[C@@H](C)OC(=O)NC[C@H]1CC[C@H](C(=O)[O-])CC1.[Na+]` [Compound 18, Sodium trans-4-({[(1R)-1-(2-Methylpropanoyloxy)ethoxy]carbonylamino}methyl)-Cyclohexanecarboxylate], the “stability from pH 2 to pH 8” value [1] was “good stability”, the “intact prodrug remaining in the presence of pancreatin” value (pancreatin) was > 40% and the “intact prodrug remaining in the presence of colonic wash” value [2] was > 40%. The “prodrug remaining in the presence of human liver S9” value [3] was < 15%.
